Measurements reported in PubChem BioAssay AID602196 (INSERM, 2012).
Here is an unselected part of about 23,000 reagents. In the full data, 455 (2%) got an active call. 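Active includes both protection and sensitisation; some change values fall well beyond the stated -50 to +50 range.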 Not all columns of the deposit are shown. The record does not give: the amount of reagent.

Test: 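Knock-downs that protect lung cancer cells from cisplatin or sensitise them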
Cell system: human A549 lung cancer cells
Reagent: siRNA pair against human genes
Time to read-out: 48 h transfection before cisplatin; time from cisplatin to read-out not stated
Treatment: cisplatin at a dose killing half of control-siRNA cells; exact dose and duration not given
Measurement: 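Shift in cisplatin death relative to control siRNA, from -50 (all cells die) to +50 (no cells die); siRNAs harmful on their own scored 0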
Direction: two-siRNA summed score (-2 to +2): higher = both siRNAs protect from cisplatin killing; -2 means both sensitise; mean protection from cisplatin (shift in death): higher = protection from cisplatin killing
Rule for the call: 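siRNAs harmful alone (LDH or WST-1) get 0; others get +1 for less and -1 for more cisplatin killing; genes are active when the two siRNAs give the same sign, summing to ±2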
Calls: active = both siRNAs shift cisplatin killing the same way; inactive = no consistent shift, or siRNA harmful alone

two-siRNA summed score (-2 to +2) | mean protection from cisplatin (shift in death) (%) | Outcome | target gene
1 | 15 | inactive | LOC440417
0 | -19 | inactive | SIRT7 (GeneID 51547)
1 | 14.7 | inactive | LOC286408
0 | -0.8 | inactive | ANKK1 (GeneID 255239)
0 | 2.8 | inactive | SOX14 (GeneID 8403)
1 | 10.9 | inactive | DUSP4 (GeneID 1846)
0 | 6.5 | inactive | SOSTDC1 (GeneID 25928)
0 | -6.9 | inactive | HPD (GeneID 3242)
1 | 3.7 | inactive | EHBP1L1 (GeneID 254102)
0 | 0.4 | inactive | PLGRKT (GeneID 55848)
-1 | -4.5 | inactive | CDK7 (GeneID 1022)
0 | 21.7 | inactive | SLA (GeneID 6503)
1 | 6.8 | inactive | LOC391124
0 | 14.5 | inactive | IKZF3 (GeneID 22806)
0 | -2.9 | inactive | B3GALT6 (GeneID 126792)
0 | 11.7 | inactive | CEBPG (GeneID 1054)
-1 | -9.1 | inactive | KCNU1 (GeneID 157855)
0 | -7.8 | inactive | IL12RB2 (GeneID 3595)
0 | -6.1 | inactive | RFPL1 (GeneID 5988)
1 | 12.6 | inactive | GOLGA7 (GeneID 51125)
0 | -4.3 | inactive | FICD (GeneID 11153)
1 | 3.4 | inactive | GALNS (GeneID 2588)
0 | 8.6 | inactive | ASAP3 (GeneID 55616)
-1 | -10.4 | inactive | SSR3 (GeneID 6747)
0 | 10.7 | inactive | LOC388421
1 | 3.7 | inactive | GRIN2A (GeneID 2903)
0 | -5.5 | inactive | LOC389671
1 | 15.4 | inactive | CSDE1 (GeneID 7812)
0 | 1.8 | inactive | PIBF1 (GeneID 10464)
0 | -2.2 | inactive | GRM3 (GeneID 2913)
0 | 11.8 | inactive | CAB39L (GeneID 81617)
0 | 23 | inactive | MAML2 (GeneID 84441)
0 | 3.7 | inactive | C19orf53 (GeneID 28974)
0 | 2 | inactive | ZNF577 (GeneID 84765)
-1 | -4.7 | inactive | CBLN2 (GeneID 147381)
-1 | -9.6 | inactive | CES1 (GeneID 1066)
-1 | -13 | inactive | PTCRA (GeneID 171558)
-1 | -2.2 | inactive | GATD1 (GeneID 347862)
0 | 28.7 | inactive | SPMIP8 (GeneID 374739)
1 | 21.1 | inactive | LILRB1 (GeneID 10859)
0 | 0.9 | inactive | LOC342991
1 | 7.1 | inactive | XKRX (GeneID 402415)
1 | 26.2 | inactive | HMCN1 (GeneID 83872)
0 | 3 | inactive | H2BC3 (GeneID 3018)

The list goes on; the last 10 above are carried over.
two-siRNA summed score (-2 to +2) | mean protection from cisplatin (shift in death) (%) | Outcome | target gene
-1 | -4.7 | inactive | CBLN2 (GeneID 147381)
-1 | -9.6 | inactive | CES1 (GeneID 1066)
-1 | -13 | inactive | PTCRA (GeneID 171558)
-1 | -2.2 | inactive | GATD1 (GeneID 347862)
0 | 28.7 | inactive | SPMIP8 (GeneID 374739)
1 | 21.1 | inactive | LILRB1 (GeneID 10859)
0 | 0.9 | inactive | LOC342991
1 | 7.1 | inactive | XKRX (GeneID 402415)
1 | 26.2 | inactive | HMCN1 (GeneID 83872)
0 | 3 | inactive | H2BC3 (GeneID 3018)
-1 | -13.6 | inactive | DNAH7 (GeneID 56171)
1 | 10 | inactive | BARD1 (GeneID 580)
0 | 18.1 | inactive | FAT3 (GeneID 120114)
0 | 5.2 | inactive | ANKRD18A (GeneID 253650)
1 | 6.5 | inactive | B3GAT2 (GeneID 135152)
0 | 17.6 | inactive | ACOT13 (GeneID 55856)
0 | 11.6 | inactive | LOC149603
0 | -22.5 | inactive | PPRC1 (GeneID 23082)
0 | -2.8 | inactive | SIRPB1 (GeneID 10326)
-1 | -2 | inactive | CACNA1A (GeneID 773)
1 | 10.5 | inactive | ZNF17 (GeneID 7565)
1 | 15.5 | inactive | SYVN1 (GeneID 84447)
0 | 9.2 | inactive | LOC344797
0 | 22.1 | inactive | SAMD15 (GeneID 161394)
0 | 3.6 | inactive | ACSM5 (GeneID 54988)
-1 | -7.7 | inactive | LOC442159
0 | -0.9 | inactive | CPAP (GeneID 55835)
0 | 2.4 | inactive | MTNAP1 (GeneID 55028)
0 | 13.3 | inactive | AGPAT3 (GeneID 56894)
1 | 12.9 | inactive | LINC01140 (GeneID 339524)
0 | 5.9 | inactive | LOC388338
0 | -1.7 | inactive | PRPSAP1 (GeneID 5635)
0 | 6.4 | inactive | PCDHA12 (GeneID 56137)
0 | 10 | inactive | RAB2B (GeneID 84932)
0 | -1.7 | inactive | GRB14 (GeneID 2888)
0 | 3 | inactive | LOC440827
0 | -12.6 | inactive | KCND1 (GeneID 3750)
0 | -1.5 | inactive | LOC402563
0 | -3.6 | inactive | EFHC2 (GeneID 80258)
